Values from PubChem BioAssay AID504808 (Drosophila RNAi Screening Center, 2011).
The screen tested about 21,000 reagents; this is a random part of those with a known target gene and a result. In the full data, 18 (0.084%) got an active call. 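Raw counts without plate normalisation, one of two replicates; the ratio scores behind the calls were not deposited.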 Not given: the amount of reagent, the time to read-out.

Purpose: 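Chromatin factors that keep E2F targets switched off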 (primary screen)
System: Drosophila S2 cells
Reagents: long dsRNA against Drosophila genes
Measurement: 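Dual luciferase plate measurements; E2F-specific signal taken as firefly over Renilla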
Reading the numbers: E2F firefly: higher = more E2F reporter activity; Renilla normaliser: higher = more normaliser reporter signal
Call rule: 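a knock-down counted as active when the firefly/Renilla E2F signal rose above 50%, a threshold chosen arbitrarily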

| gene knocked down | dsRNA | E2F firefly, rep 1 | Renilla normaliser, rep 1 | Outcome |
| --- | --- | --- | --- | --- |
| Rab3-GAP (Rab3 GTPase activating protein) | DRSC02001 | 80953 | 3865 | inactive |
| CG14957 | DRSC08416 | 1.04e5 | 4098 | inactive |
| nxf4 (nuclear export factor 4) | DRSC12548 | 1.26e5 | 5987 | inactive |
| CG12481 | DRSC19461 | 2.26e5 | 7973 | inactive |
| CG18508 | DRSC18155 | 1.31e5 | 7363 | inactive |
| CG14971 | DRSC08430 | 73433 | 3591 | inactive |
| CG6330 | DRSC16022 | 1835 | 904 | inactive |
| Psn (Presenilin) | DRSC11743 | 1.37e5 | 6393 | inactive |
| CG8314 | DRSC07144 | 75782 | 3234 | inactive |
| Cpr67Fa1 (Cuticular protein 67Fa1) | DRSC10932 | 1.31e5 | 5671 | inactive |
| c12.1 | DRSC18750 | 87037 | 5805 | inactive |
| Jhbp2 (Juvenile hormone binding protein 2) | DRSC12292 | 1.14e5 | 5968 | inactive |
| Gld (Glucose dehydrogenase) | DRSC12595 | 1.39e5 | 5891 | inactive |
| corn (cornetto) | DRSC11021 | 69041 | 3096 | inactive |
| promL (prominin-like) | DRSC08733 | 75053 | 4205 | inactive |
| CG1598 | DRSC06598 | 1.46e5 | 4691 | inactive |
| CycK (Cyclin K) | DRSC03714 | 67678 | 3413 | inactive |
| 5-HT2B (5-hydroxytryptamine (serotonin) receptor 2B) | DRSC16360 | 1.49e5 | 8801 | inactive |
| 5-HT2B (5-hydroxytryptamine (serotonin) receptor 2B) | DRSC16362 | 1.43e5 | 7614 | inactive |
| Nse4 (Non-SMC element 4) | DRSC02239 | 1.47e5 | 4578 | inactive |
| N (Notch) | DRSC18685 | 1.19e5 | 6216 | inactive |
| CG18747 | DRSC15384 | 1.44e5 | 7043 | inactive |
| CG12061 | DRSC20715 | 1.39e5 | 6939 | inactive |
| CG10920 | DRSC17765 | 45001 | 2945 | inactive |
| spaw (spacewatch) | DRSC06824 | 1.35e5 | 4734 | inactive |
| CG15764 | DRSC18070 | 71222 | 4298 | inactive |
| SNF4Agamma (SNF4/AMP-activated protein kinase gamma subunit) | DRSC13461 | 77410 | 2820 | inactive |
| SNF4Agamma (SNF4/AMP-activated protein kinase gamma subunit) | DRSC13463 | 71638 | 2678 | inactive |
| SNF4Agamma (SNF4/AMP-activated protein kinase gamma subunit) | DRSC15879 | 1.19e5 | 7006 | inactive |
| SNF4Agamma (SNF4/AMP-activated protein kinase gamma subunit) | DRSC16847 | 72095 | 3098 | inactive |
| SREBP (Sterol regulatory element binding protein) | DRSC11182 | 1.29e5 | 8095 | inactive |
| CG15615 | DRSC06568 | 1.35e5 | 5050 | inactive |
| CG42500 | DRSC14822 | 91667 | 6103 | inactive |
| Snr1 (Snf5-related 1) | DRSC12369 | 71365 | 4353 | inactive |
| CG10347 | DRSC19352 | 1.29e5 | 6177 | inactive |
| Pepck1 (Phosphoenolpyruvate carboxykinase 1) | DRSC07505 | 1.42e5 | 5339 | inactive |
| nompA (no mechanoreceptor potential A) | DRSC06329 | 92393 | 4372 | inactive |
| zpg (zero population growth) | DRSC09702 | 1.00e5 | 3888 | inactive |
| CG4704 | DRSC15628 | 99694 | 5347 | inactive |
| Cog6 (Component of oligomeric golgi complex 6) | DRSC06806 | 3222 | 55 | inactive |
| Adk3 (Adenosine kinase 3) | DRSC05917 | 78507 | 3007 | inactive |
| wus (wurst) | DRSC20278 | 1.65e5 | 5514 | inactive |
| Ptp10D (Protein tyrosine phosphatase 10D) | DRSC20272 | 1.35e5 | 6326 | inactive |
| CG4375 | DRSC00653 | 1.68e5 | 6054 | inactive |
| hui (hase und igel) | DRSC05977 | 2935 | 187 | inactive |
| CG14568 | DRSC11729 | 1.25e5 | 6125 | inactive |
| Art4 (Arginine methyltransferase 4) | DRSC15779 | 1.39e5 | 5991 | inactive |
| CG2209 | DRSC19843 | 1.21e5 | 6307 | inactive |
| CG43102 | DRSC14797 | 96126 | 4580 | inactive |
| CG43102 | DRSC16239 | 1.01e5 | 4499 | inactive |
| CG44774 | DRSC18342 | 1.10e5 | 6399 | inactive |
| nes (nessy) | DRSC11375 | 1.49e5 | 8177 | inactive |
| ERR (estrogen-related receptor) | DRSC10840 | 82643 | 4137 | inactive |
| Gbs-70E (Glycogen binding subunit 70E) | DRSC11055 | 1.62e5 | 7400 | inactive |
| CG7882 | DRSC04899 | 1.12e5 | 4749 | inactive |
| CG12520 | DRSC09892 | 1.31e5 | 6612 | inactive |
| CG3713 | DRSC18648 | 53555 | 3456 | inactive |
